Values from PubChem BioAssay AID1259275 (Sanger Institute, 2017)

Aim: 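Kinase and colorectal cancer genes needed for cancer cell survival, with or without drugs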 (primary screen)
System: COLO320HSR human colorectal cancer cells
Reagents: siRNA pool against human genes
Conditions: anchor drug added one day after transfection: BYL719 at 1 µM, cetuximab at 5 µg/ml or trametinib at 10 nM; DMSO as vehicle arm
Detection: 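Replicate-mean viability versus non-targeting pool control, robust z-score without drug, and per-drug synergy scores for BYL719 at 1 µM, cetuximab at 5 µg/ml and trametinib at 10 nM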
Reading the numbers: robust z-score, siRNA alone: higher = more viable cells; strongly negative means essential
Call rule: 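a gene is called essential when its robust z-score without drug falls below -3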
Calls: active = essential (siRNA alone); inactive = no change (siRNA alone)
Shown is an unselected part of 794 reagents. 13 of them (1.6%) count as active. 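Calls mark knock-downs lethal by themselves, not drug synergy; drugs went in a day after transfection, with DMSO as vehicle.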 Unmarked entries are inactive. Not all columns of the deposit are shown. Not given: the amount of reagent, the time to read-out.

After knock-down of PLK1 (polo like kinase 1) the results were robust z-score, siRNA alone -6.29 (active). After knock-down of FOXP1 (forkhead box P1) the results were robust z-score, siRNA alone -2.26. Against PTGS1 (prostaglandin-endoperoxide synthase 1) the deposit lists robust z-score, siRNA alone -0.165. PIP4K2A (phosphatidylinositol-5-phosphate 4-kinase type 2 alpha) gave robust z-score, siRNA alone 0.726. DYRK4 (dual specificity tyrosine phosphorylation regulated kinase 4) scored robust z-score, siRNA alone 0.506. PRKCQ (protein kinase C theta) showed robust z-score, siRNA alone 0.726.

TWF2 (twinfilin actin binding protein 2) showed robust z-score, siRNA alone 0.726. Against EFNA3 (ephrin A3), the entry reads robust z-score, siRNA alone -1.1. PNCK (pregnancy up-regulated nonubiquitous CaM kinase) scored robust z-score, siRNA alone -0.504. SGK2 (serum/glucocorticoid regulated kinase 2) gave robust z-score, siRNA alone -1.25. PANK3 (pantothenate kinase 3) scored robust z-score, siRNA alone 0.726. Knock-down of TYRO3 (TYRO3 protein tyrosine kinase) came out at: robust z-score, siRNA alone 0.611.

Silencing of PAK4 (p21 (RAC1) activated kinase 4) gave: robust z-score, siRNA alone -0.0422. LTK (leukocyte receptor tyrosine kinase) scored robust z-score, siRNA alone -0.0911. Knock-down of NUP107 (nucleoporin 107) resulted in: robust z-score, siRNA alone -6.39 (active). Knock-down of DLG2 (discs large MAGUK scaffold protein 2) gave: robust z-score, siRNA alone 0.726. SPEG (striated muscle enriched protein kinase) gave robust z-score, siRNA alone 0.726. With knock-down of PIK3R2 (phosphoinositide-3-kinase regulatory subunit 2) the results were robust z-score, siRNA alone 0.726.

ALPK2 (alpha kinase 2) gave robust z-score, siRNA alone 0.484.
